Measured values as given in patent US20230242871A1, “GENERATION OF PRIMORDIAL GERM CELLS AND METHODS OF USING THE SAME” (The Board of Trustees of the Leland Stanfor Junior …, priority 2020, published 2023).

B1: CD294 (protein, UniProt Q9Y5Y4 1-395, looked up)
Prostaglandin D2 receptor 2: MSANATLKPLCPILEQMSRLQSHSNTSIRYIDHAAVLLHGLASLLGLVENGVILFVVGCRMRQTVVTTWVLHLALSDLLASASLPFFTYFLAVGHSWELGTTFCKLHSSIFFLNMFASGFLLSAISLDRCLQVVRPVWAQNHRTVAAAHKVCLVLWALAVLNTVPYFVFRDTISRLDGRIMCYYNVLLLNPGPDRDATCNSRQVALAVSKFLLAFLVPLAIIASSHAAVSLRLQHRGRRRPGRFVRLVAAVVAAFALCWGPYHVFSLLEARAHANPGLRPLVWRGLPFVTSLAFFNSVANPVLYVLTCPDMLRKLRRSLRTVLESVLVDDSELGGAGSSRRRRTSSTARSASPLALCSRPEEPRGPARLLGWLLGSCAASPQTGPLNRALSSTSS
B2: CX3CR1 (protein, UniProt P49238 1-355, looked up)
CX3C chemokine receptor 1: MDQFPESVTENFEYDDLAEACYIGDIVVFGTVFLSIFYSVIFAIGLVGNLLVVFALTNSKKPKSVTDIYLLNLALSDLLFVATLPFWTHYLINEKGLHNAMCKFTTAFFFIGFFGSIFFITVISIDRYLAIVLAANSMNNRTVQHGVTISLGVWAAAILVAAPQFMFTKQKENECLGDYPEVLQEIWPVLRNVETNFLGFLLPLLIMSYCYFRIIQTLFSCKNHKKAKAIKLILLVVIVFFLFWTPYNVMIFLETLKLYDFFPSCDMRKDLRLALSVTETVAFSHCCLNPLIYAFAGEKFRRYLYHLYGKCLAVLCGRSVHVDFSSSESQRSRHGSVLSSNFTYHTSDGDALLLL
B3: CD131 (protein, UniProt P32927 17-897, looked up)
Cytokine receptor common …: WERSLAGAEETIPLQTLRCYNDYTSHITCRWADTQDAQRLVNVTLIRRVNEDLLEPVSCDLSDDMPWSACPHPRCVPRRCVIPCQSFVVTDVDYFSFQPDRPLGTRLTVTLTQHVQPPEPRDLQISTDQDHFLLTWSVALGSPQSHWLSPGDLEFEVVYKRLQDSWEDAAILLSNTSQATLGPEHLMPSSTYVARVRTRLAPGSRLSGRPSKWSPEVCWDSQPGDEAQPQNLECFFDGAAVLSCSWEVRKEVASSVSFGLFYKPSPDAGEEECSPVLREGLGSLHTRHHCQIPVPDPATHGQYIVSVQPRRAEKHIKSSVNIQMAPPSLNVTKDGDSYSLRWETMKMRYEHIDHTFEIQYRKDTATWKDSKTETLQNAHSMALPALEPSTRYWARVRVRTSRTGYNGIWSEWSEARSWDTESVLPMWVLALIVIFLTIAVLLALRFCGIYGYRLRRKWEEKIPNPSKSHLFQNGSAELWPPGSMSAFTSGSPPHQGPWGSRFPELEGVFPVGFGDSEVSPLTIEDPKHVCDPPSGPDTTPAASDLPTEQPPSPQPGPPAASHTPEKQASSFDFNGPYLGPPHSRSLPDILGQPEPPQEGGSQKSPPPGSLEYLCLPAGGQVQLVPLAQAMGPGQAVEVERRPSQGAAGSPSLESGGGPAPPALGPRVGGQDQKDSPVAIPMSSGDTEDPGVASGYVSSADLVFTPNSGASSVSLVPSLGLPSDQTPSLCPGLASGPPGAPGPVKSGFEGYVELPPIEGRSPRSPRNNPVPPEAKSPVLNPGERPADVSPTSPQPEGLLVLQQVGDYCFLPGLGPGPLSLRSKPSSPGPGPEIKNLDQAFQVKKPPGQAVPQVPVIQLFKALKQQDYLSLPPWEVNKPGEVC
B4: XCR1 (protein, UniProt P46094 1-333, looked up)
Chemokine XC receptor 1: MESSGNPESTTFFYYDLQSQPCENQAWVFATLATTVLYCLVFLLSLVGNSLVLWVLVKYESLESLTNIFILNLCLSDLVFACLLPVWISPYHWGWVLGDFLCKLLNMIFSISLYSSIFFLTIMTIHRYLSVVSPLSTLRVPTLRCRVLVTMAVWVASILSSILDTIFHKVLSSGCDYSELTWYLTSVYQHNLFFLLSLGIILFCYVEILRTLFRSRSKRRHRTVKLIFAIVVAYFLSWGPYNFTLFLQTLFRTQIIRSCEAKQQLEYALLICRNLAFSHCCFNPVLYVFVGVKFRTHLKHVLRQFWFCRLQAPSPASIPHSPGAFAYEGASFY
B5: CD143 (protein, UniProt P12821 30-1306, looked up)
Angiotensin-converting enzyme: LDPGLQPGNFSADEAGAQLFAQSYNSSAEQVLFQSVAASWAHDTNITAENARRQEEAALLSQEFAEAWGQKAKELYEPIWQNFTDPQLRRIIGAVRTLGSANLPLAKRQQYNALLSNMSRIYSTAKVCLPNKTATCWSLDPDLTNILASSRSYAMLLFAWEGWHNAAGIPLKPLYEDFTALSNEAYKQDGFTDTGAYWRSWYNSPTFEDDLEHLYQQLEPLYLNLHAFVRRALHRRYGDRYINLRGPIPAHLLGDMWAQSWENIYDMVVPFPDKPNLDVTSTMLQQGWNATHMFRVAEEFFTSLELSPMPPEFWEGSMLEKPADGREVVCHASAWDFYNRKDFRIKQCTRVTMDQLSTVHHEMGHIQYYLQYKDLPVSLRRGANPGFHEAIGDVLALSVSTPEHLHKIGLLDRVTNDTESDINYLLKMALEKIAFLPFGYLVDQWRWGVFSGRTPPSRYNFDWWYLRTKYQGICPPVTRNETHFDAGAKFHVPNVTPYIRYFVSFVLQFQFHEALCKEAGYEGPLHQCDIYRSTKAGAKLRKVLQAGSSRPWQEVLKDMVGLDALDAQPLLKYFQPVTQWLQEQNQQNGEVLGWPEYQWHPPLPDNYPEGIDLVTDEAEASKFVEEYDRTSQVVWNEYAEANWNYNTNITTETSKILLQKNMQIANHTLKYGTQARKFDVNQLQNTTIKRIIKKVQDLERAALPAQELEEYNKILLDMETTYSVATVCHPNGSCLQLEPDLTNVMATSRKYEDLLWAWEGWRDKAGRAILQFYPKYVELINQAARLNGYVDAGDSWRSMYETPSLEQDLERLFQELQPLYLNLHAYVRRALHRHYGAQHINLEGPIPAHLLGNMWAQTWSNIYDLVVPFPSAPSMDTTEAMLKQGWTPRRMFKEADDFFTSLGLLPVPPEFWNKSMLEKPTDGREVVCHASAWDFYNGKDFRIKQCTTVNLEDLVVAHHEMGHIQYFMQYKDLPVALREGANPGFHEAIGDVLALSVSTPKHLHSLNLLSSEGGSDEHDINFLMKMALDKIAFIPFSYLVDQWRWRVFDGSITKENYNQEWWSLRLKYQGLCPPVPRTQGDFDPGAKFHIPSSVPYIRYFVSFIIQFQFHEALCQAAGHTGPLHKCDIYQSKEAGQRLATAMKLGFSRPWPEAMQLITGQPNMSASAMLSYFKPLLDWLRTENELHGEKLGWPQYNWTPNSARSEGPLPDSGRVSFLGLDLDAQQARVGQWLLLFLGIALLVATLGLSQRLFSIRHRSLHRHSHGPQFGSEVELRHS
B6: CD148 (protein, UniProt Q12913 36-1337, looked up)
Receptor-type …: AGGTPSPIPDPSVATVATGENGITQISSTAESFHKQNGTGTPQVETNTSEDGESSGANDSLRTPEQGSNGTDGASQKTPSSTGPSPVFDIKAVSISPTNVILTWKSNDTAASEYKYVVKHKMENEKTITVVHQPWCNITGLRPATSYVFSITPGIGNETWGDPRVIKVITEPIPVSDLRVALTGVRKAALSWSNGNGTASCRVLLESIGSHEELTQDSRLQVNISGLKPGVQYNINPYLLQSNKTKGDPLGTEGGLDASNTERSRAGSPTAPVHDESLVGPVDPSSGQQSRDTEVLLVGLEPGTRYNATVYSQAANGTEGQPQAIEFRTNAIQVFDVTAVNISATSLTLIWKVSDNESSSNYTYKIHVAGETDSSNLNVSEPRAVIPGLRSSTFYNITVCPVLGDIEGTPGFLQVHTPPVPVSDFRVTVVSTTEIGLAWSSHDAESFQMHITQEGAGNSRVEITTNQSIIIGGLFPGTKYCFEIVPKGPNGTEGASRTVCNRTVPSAVFDIHVVYVTTTEMWLDWKSPDGASEYVYHLVIESKHGSNHTSTYDKAITLQGLIPGTLYNITISPEVDHVWGDPNSTAQYTRPSNVSNIDVSTNTTAATLSWQNFDDASPTYSYCLLIEKAGNSSNATQVVTDIGITDATVTELIPGSSYTVEIFAQVGDGIKSLEPGRKSFCTDPASMASFDCEVVPKEPALVLKWTCPPGANAGFELEVSSGAWNNATHLESCSSENGTEYRTEVTYLNFSTSYNISITTVSCGKMAAPTRNTCTTGITDPPPPDGSPNITSVSHNSVKVKFSGFEASHGPIKAYAVILTTGEAGHPSADVLKYTYEDFKKGASDTYVTYLIRTEEKGRSQSLSEVLKYEIDVGNESTTLGYYNGKLEPLGSYRACVAGFTNITFHPQNKGLIDGAESYVSFSRYSDAVSLPQDPGVICGAVFGCIFGALVIVTVGGFIFWRKKRKDAKNNEVSFSQIKPKKSKLIRVENFEAYFKKQQADSNCGFAEEYEDLKLVGISQPKYAAELAENRGKNRYNNVLPYDISRVKLSVQTHSTDDYINANYMPGYHSKKDFIATQGPLPNTLKDFWRMVWEKNVYAIIMLTKCVEQGRTKCEEYWPSKQAQDYGDITVAMTSEIVLPEWTIRDFTVKNIQTSESHPLRQFHFTSWPDHGVPDTTDLLINFRYLVRDYMKQSPPESPILVHCSAGVGRTGTFIAIDRLIYQIENENTVDVYGIVYDLRMHRPLMVQTEDQYVFLNQCVLDIVRSQKDSKVDLIYQNTTAMTIYENLAPVTTFGKTNGYIA
B7: CD278 (protein, UniProt Q9Y6W8 21-199, looked up)
Inducible T-cell costimulator: EINGSANYEMFIFHNGGVQILCKYPDIVQQFKMQLLKGGQILCDLTKTKGSGNTVSIKSLKFCHSQLSNNSVSFFLYNLDHSHANYYFCNLSIFDPPPFKVTLTGGYLHIYESQLCCQLKFWLPIGCAAFVVVCILGCILICWLTKKKYSSSVHDPNGEYMFMRAVNTAKKSRLTDVTL
B8: CD132 (protein, UniProt P31785 23-369, looked up)
Cytokine receptor common …: LNTTILTPNGNEDTTADFFLTTMPTDSLSVSTLPLPEVQCFVFNVEYMNCTWNSSSEPQPTNLTLHYWYKNSDNDKVQKCSHYLFSEEITSGCQLQKKEIHLYQTFVVQLQDPREPRRQATQMLKLQNLVIPWAPENLTLHKLSESQLELNWNNRFLNHCLEHLVQYRTDWDHSWTEQSVDYRHKFSLPSVDGQKRYTFRVRSRFNPLCGSAQHWSEWSHPIHWGSNTSKENPFLFALEAVVISVGSMGLIISLLCVYFWLERTMPRIPTLKNLEDLVTEYHGNFSAWSGVSKGLAESLQPDYSERLCLVSEIPPKGGALGEGPGASPCNQHSPYWAPPCYTLKPET
B9: CD134 (protein, UniProt P43489 29-277, looked up)
Tumor necrosis factor …: LHCVGDTYPSNDRCCHECRPGNGMVSRCSRSQNTVCRPCGPGFYNDVVSSKPCKPCTWCNLRSGSERKQLCTATQDTVCRCRAGTQPLDSYKPGVDCAPCPPGHFSPGDNQACKPWTNCTLAGKHTLQPASNSSDAICEDRDPPATQPQETQGPPARPITVQPTEAWPRTSQGPSTRPVEVPGGRAVAAILGLGLVLGLLGPLAILLALYLLRRDQRLPPDAHKPPGGGSFRTPIQEEQADAHSTLAKI

Tests used:
Experiment in all cases: High-throughput cell-surface marker screening (LEGENDScreen), %PE+
Format in all cases: cell-based, human
Details in all cases: percentage of cells bound to the PE-conjugated antibody (LEGENDScreen)
[1] = tested on: D3.5 SOX17-GFP+ PGCs
[2] = tested on: D3.5 SOX17-GFP- non-PGCs
[3] = tested on: undifferentiated hPSC (D0)

| Molecule | % PE+ in PGCs [1] [%] | % PE+ in non-PGCs [2] [%] | % PE+ in H1 UD [3] [%] |
| --- | --- | --- | --- |
| B1 | 0.4746 | 0.02205 | 0.3 |
| B2 | 0 | 0.0001112 | 0.2 |
| B3 | 0 | 0.0001418 | 0.16 |
| B4 | 0 | 0.0005968 | 0.3 |
| B5 | 0.2429 | 0.09792 | 25 |
| B6 | 0.5294 | 0.2763 | 99.7 |
| B7 | 0 | 5.9713E-05 | 0.038 |
| B8 | 0.007812 | 0.008005 | 1.07 |
| B9 | 0 | 0.0001114 | 0.35 |
